# Measurements: PubChem BioAssay AID2417 (National Center for Advancing Translational Sciences (NCATS), 2010)
# About 4,300 (3.1%) of roughly 140,000 compounds were called active. Inconclusive results, whose numbers are uncertain, are shown with a selection of clear calls.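 Rule for the calls: active = readout at or below -70, meaning at least 70% loss of cells showing the perinucleolar compartment, a nuclear body marking cancer cells; inconclusive = readout between -30 and a set limit; inactive = the rest.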
# Test: High Content Assay for Compounds that inhibit the Assembly of the Perinucleolar Compartment;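 note: plate controls were DMSO wells for no effect and camptothecin positive control wells for full effect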
# Details: PC3M PTB-GFP, PNC prevalence imaging, 16 h; at 10 µM; stronger effect = lower value
# Method in brief: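 PC3M cells stably expressing PTB-GFP, 750–1000 cells/well, treated 16 h at 37 °C with compound (23 nl of library stock), in duplicate. After paraformaldehyde fixation and Hoechst stain, imaged at 20x; PNC prevalence scored by image analysis.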
row,SMILES,"activity change (PNC), negative = inhibition"
1,O=C(Nc1ccc(Cl)c(Cl)c1)OCCNC(=O)c1cccc(Cl)c1,inactive: -6.17%
2,COc1ccccc1NC(=O)CCC(=O)N/N=C(/C)c1ccc(C)cc1,inconclusive: -48.2%
3,CC1CCCN(C(=O)c2ccncc2)C1 (centres undefined),inconclusive: -30%
4,COc1ccc(NC2=CC(=O)CC(c3ccccc3)C2)c(OC)c1 (centres undefined),inconclusive: -30.7%
5,O=C(NC1CCCCCCC1)C1CCN(S(=O)(=O)N2CCC3(CC2)OCCO3)CC1,inconclusive: -34.5%
6,CCOC(=O)N1CCN(C(=O)c2cc(C)c3c(C)nn(-c4ccccc4)c3n2)CC1,inactive: -7.66%
7,O=C(Nc1cccc(S(=O)(=O)NC2=NCCCCC2)c1)c1cc(-c2ccccc2)nc2ccccc12,inconclusive: -46.2%
8,COc1ccc(CCNC(=O)CN(c2ccc(C)cc2)S(=O)(=O)c2c(C)noc2C)cc1OC,inconclusive: -30.8%
9,Cn1c(=O)c(=O)n(C)c2cc(S(=O)(=O)Nc3ccc(OC(F)(F)F)cc3)ccc21,inconclusive: -33.1%
10,O=C(c1ccc(Cl)cc1)N1CCN(C(=O)c2ccco2)CC1,active: -100%
11,COc1ccc(C2NC(=S)NC3=C2CCc2ccccc23)cc1OC (centres undefined),inconclusive: -37.9%
12,COCCN(C(=O)c1csnn1)C(C(=O)NC1CCCCC1)c1cccs1 (centres undefined),inconclusive: -37.2%
13,CCn1c(SCc2ccc(F)cc2)nnc1-c1nn(-c2ccccc2)ccc1=O,inconclusive: -35.1%
14,O=C(c1ccc2c(c1)OCO2)N(Cc1ccco1)C1(C(=O)NC2CCCCC2)CCCCC1,inconclusive: -56.2%
15,CCOC(=O)c1cnc(SC)nc1Sc1ccccc1Cl,active: -104%
16,C=CCNC(=O)c1cccc(C(F)(F)F)c1,inconclusive: -57.5%
17,c1ccc(-n2nnnc2Sc2ncnc3sc4c(c23)CCCC4)cc1,inconclusive: -39.9%
18,O=C(NC1CCCc2ccccc21)C(Cc1ccccc1)NS(=O)(=O)c1cccs1 (centres undefined),inactive: -24.2%
19,CN(CCCNC(=O)c1ccc(N2CCCC2=O)cc1)c1ccccc1,inconclusive: -43.7%
20,O=C(N/N=C/c1coc2ccccc2c1=O)c1cn(-c2ccccc2)nc1-c1ccc(F)cc1,inconclusive: -46.1%
21,O=C(CCN1C(=O)c2ccccc2C1=O)N1CCCCCC1,inactive: 16.4%
22,CN(C(=O)c1ccc2c(=O)n3c(nc2c1)CCCCC3)c1ccccc1,active: -100%
23,COC(=O)C1=C(COc2ccc(F)cc2)NC(=O)NC1c1ccc(C)cc1C (centres undefined),inconclusive: -33.9%

row,SMILES,"activity change (PNC), negative = inhibition"
1,Cc1ccc(C(=O)Nc2ccc(Cl)cn2)cc1,inactive: -24.9%
2,CN1CCN(C(=O)c2ccc(C3SCC(=O)N3Cc3ccco3)cc2)CC1 (centres undefined),inconclusive: -75.2%
3,CCN(CC)S(=O)(=O)c1ccc(NC(=O)c2ccc(N(C)S(C)(=O)=O)cc2)cc1,inconclusive: -39.3%
4,CCOc1ccc(-n2c(SCc3ccc(C#N)cc3)nnc2-c2cccnc2)cc1,inconclusive: -52.6%
5,CN(C)S(=O)(=O)Oc1cccc(C(=O)Nc2ccccc2Cl)c1,inactive: 14.6%
6,O=C(CSc1nnc2ccccn12)N1CCc2ccccc2C1,inconclusive: -55.5%
7,CC1=Nn2c(nnc2-c2cc(-c3ccccc3)n[nH]2)SC1,inconclusive: -48.5%
8,COc1cccc(Nc2cc(C)nc3nc(C)nn23)c1,inactive: 45.3%
9,Nc1cc(=O)[nH]c(SC/C=C/c2ccccc2)n1,inactive: -27.7%
10,CCOC(=O)C1CCCN(C(=O)c2cc(=O)c3ccccc3o2)C1 (centres undefined),inconclusive: -44.9%
11,COc1cc(C(=O)NCC(=O)N/N=C/c2cccs2)cc(OC)c1OC,inconclusive: -52.4%
12,CCCSc1cc(N2CCCC2)nc(-c2ccccc2)n1,inactive: -6.93%
13,O=c1c(-c2ccnn2-c2cccc(Cl)c2)cnc2n1CCS2,active: -80.5%
14,CCOc1cccc(C(=O)NC(=S)Nc2ccc(N3CCCC3)cc2)c1,inconclusive: -51.9%
15,CCOc1ccc(-n2cnnn2)cc1S(=O)(=O)NCCc1ccc(OC)c(OC)c1,inconclusive: -36.4%
16,O=C(NNC(=O)c1cc(OCC(F)(F)F)ccc1OCC(F)(F)F)c1cccc(C(F)(F)F)c1,active: -84.2%
17,Cc1cccc(C(=O)NC(=S)NNC(=O)COc2c(C)cccc2C)c1,inactive: -2.8%
18,CN1CCN(C(=O)/C=C/c2ccc([N+](=O)[O-])cc2)CC1,inconclusive: -49.8%
19,CCSc1nnc([C@H](Cc2c[nH]c3ccccc23)NC(=O)OC(C)(C)C)o1,inactive: 19.7%
20,COc1ccc(OC)c(NC(=O)c2ccc(NS(=O)(=O)c3c(C)noc3C)cc2)c1,inconclusive: -35%
21,CCCSc1nnc(-c2cnn(-c3ccccc3)c2-n2cccc2)n1C,inactive: 23.8%
22,COC(=O)c1c(Cl)c2n3ccccc3c(C)c(-c3ccccc3)c-2c1C(=O)OC,inactive: 4.87%
23,Cc1cccc(NC(=O)c2c([N+](=O)[O-])c(C(C)(C)C)nn2C)c1,inconclusive: -35.1%

# As entered above.
# CN1CCN(C(=O)c2ccc(C3SCC(=O)N3Cc3ccco3)cc2)CC1 (centres undefined) – activity change (PNC), negative = inhibition: inconclusive: -75.2%
# COc1ccc(OC)c(NC(=O)c2ccc(NS(=O)(=O)c3c(C)noc3C)cc2)c1 – activity change (PNC), negative = inhibition: inconclusive: -35%
# CCCSc1cc(N2CCCC2)nc(-c2ccccc2)n1 – activity change (PNC), negative = inhibition: inactive: -6.93%
# COc1cc(C(=O)NCC(=O)N/N=C/c2cccs2)cc(OC)c1OC – activity change (PNC), negative = inhibition: inconclusive: -52.4%
# O=C(CSc1nnc2ccccn12)N1CCc2ccccc2C1 – activity change (PNC), negative = inhibition: inconclusive: -55.5%
# CCOc1cccc(C(=O)NC(=S)Nc2ccc(N3CCCC3)cc2)c1 – activity change (PNC), negative = inhibition: inconclusive: -51.9%
# Cc1cccc(C(=O)NC(=S)NNC(=O)COc2c(C)cccc2C)c1 – activity change (PNC), negative = inhibition: inactive: -2.8%

# Continuation.

row,SMILES,"activity change (PNC), negative = inhibition"
1,Cc1ccc(NC2=NCC(=O)N2Cc2ccc3c(c2)OCO3)cc1,inactive: 23.5%
2,CCC(CC)C(=O)Nc1cccc(S(=O)(=O)c2cccc(NC(=O)C(CC)CC)c2)c1,inactive: -23.3%
3,CC(C)n1cc(C(=O)c2cc(Br)ccc2O)cc(C#N)c1=O,inactive: 25.8%
4,COc1ccc(NC(=S)N2CCN(C/C=C/c3ccccc3)CC2)cc1,inconclusive: -48.6%
5,O=C(COC(=O)C1CCN(S(=O)(=O)c2cccc3cccnc23)CC1)c1ccccc1,inconclusive: -30.3%
6,NS(=O)(=O)c1ccc(CNC(=S)NCc2ccc(Cl)cc2)cc1,inconclusive: -48.2%
7,CC(=O)CSc1nnc(-c2cnccn2)n1-c1ccccc1,inactive: 18.8%
8,CN1C(=O)c2ccc(C(=O)NCc3ccc4c(c3)OCO4)cc2C1=O,inconclusive: -32.6%
9,CCOC(=O)c1sc(NC(=O)CSc2nc(C)cc(C)c2C#N)c(C#N)c1C,inactive: 79.5%
10,CCOC(=O)c1cc(-c2nnc(-c3ccc(Cl)cc3)o2)c(C)nc1C,inconclusive: -59%
11,CC(=O)c1ccc(NC(=O)Nc2ccc(NS(=O)(=O)c3ccc(C)cc3)cc2)cc1,inactive: 1.65%
12,Cc1ccccc1NS(=O)(=O)c1ccc2[nH]cc(C(=O)N(C)Cc3ccco3)c(=O)c2c1,inactive: 6%
13,COCCCNC(=O)c1cn(C)c(=O)c2cc(OC)c(OC)cc12,inconclusive: -33.7%
14,Cc1ccnc(NC(=O)CCC(=O)N(CC(=O)NC2CCCCC2)c2ccc3c(c2)OCO3)c1,inconclusive: -36.6%
15,CC1CCCCC1NC(=O)CSc1nnc(-c2ccccc2)n1N (centres undefined),active: -122%
16,CCC(=O)Nc1ccc(NC(=O)c2cc3ccccc3o2)cc1,inconclusive: -31%
17,COc1ccc(Oc2nc(C)cc(C)c2C#N)cc1,inconclusive: -48.8%
18,Cc1nn(CC(=O)Nc2nnc(CC(=O)N3CCCC3)s2)c(=O)c2ccccc12,inconclusive: -54.4%
19,CCCOc1ccc(-c2csc(NC(=O)CN3C(=O)CCC3=O)n2)cc1,inconclusive: -30.9%
20,CC1CCCCN1CC(=O)Nc1ccc(Oc2ccccc2)cc1 (centres undefined),inactive: -6.08%
21,CCCn1c(SCC(=O)O)nc2ccccc21,inconclusive: -72.1%
22,CC(=O)N/C(=C\c1ccccc1)C(=O)OCC(=O)NC(C)C12CC3CC(CC(C3)C1)C2 (centres undefined),inactive: -27.1%
23,O=C(O)CN1C(=O)C2(OCCCO2)c2ccccc21,inconclusive: -55.8%

row,SMILES,"activity change (PNC), negative = inhibition"
1,O=C(NC1CCCCC1)C1CC(=O)N(CCc2ccccc2)C1 (centres undefined),inconclusive: -48%
2,CC1(C)CC(=O)C2=C(C1)OC(N)=C(C#N)C2c1cccc(OC(=O)c2ccco2)c1 (centres undefined),inconclusive: -50.4%
3,Cc1ccc2nc(-c3ccccc3)nc(SC(C)C(=O)NCc3cccs3)c2c1 (centres undefined),inactive: 28%
4,COC(=O)CN1C(=O)N(c2ccccc2)C(N(O)C(=O)Nc2ccccc2)C1(C)C (centres undefined),inconclusive: -45.3%
5,CC1=C(C(=O)OCc2ccccc2)C(c2ccc(Cl)cc2Cl)NC(=O)N1CCCC(=O)O (centres undefined),inconclusive: -43.9%
6,COc1cccc(NC(=O)Cn2nc(Cc3cccnc3)c3ccccc3c2=O)c1,inconclusive: -48.8%
7,S=c1[nH]nc(-c2cccnc2)n1/N=C/C(Cl)=C\c1ccccc1,inconclusive: -58.6%
8,CC(C)(c1ccccc1)c1ccc(OCCCNCCO)cc1,inconclusive: -55.4%
9,O=C(Nc1ccon1)c1ccccc1F,inconclusive: -47%
10,Cc1nn(C(=O)c2cccs2)c(C)c1CN1C(=O)c2ccccc2C1=O,inconclusive: -33%
11,Cc1ccccc1NC(=O)N(CCc1nc2ccccc2[nH]1)Cc1ccccc1,inconclusive: -30.9%
12,O=C(c1ccco1)N1CCN(C(c2ccccc2Cl)c2nnnn2Cc2ccco2)CC1 (centres undefined),inactive: 13.8%
13,Cc1cc(NC(=O)c2cc(-c3ccc(C)c(C)c3)nc3ccccc23)no1,inconclusive: -46.2%
14,O=C(Nc1c2c(nc3ccccc13)CCCC2)c1ccccc1F,active: -119%
15,O=C(O)CCCCCNc1ccc2nsnc2c1[N+](=O)[O-],inactive: 15.4%
16,Cc1cc(=O)c2ccccc2s1,inconclusive: -41.7%
17,O=c1c2ccccc2nc(SCc2ccccc2F)n1C1CCCC1,inconclusive: -39.2%
18,CCOC(=O)c1c(-c2ccc(C)cc2)csc1NC(=O)c1cc2ccccc2oc1=O,inactive: 5.8%
19,CSc1cccc(NS(=O)(=O)c2cccs2)c1,inconclusive: -46.5%
20,CN(C)C(=O)CCc1nc2sc3c(c2c(=O)[nH]1)CCCC3,inconclusive: -43.1%
